Test results as given in publication PMC4627072.
No constants are given. Whether binding was seen depends on the method and setting. Some binding calls cover weakened binding; strength is not graded here. Values belong to the substance of their own block, whether it stands above or below them.

Sequences of proteins named here, by UniProt entry; tags and fusion partners are left off. A change or cut given only in a name is not applied to a line headed by its entry.
UniProt Q28618: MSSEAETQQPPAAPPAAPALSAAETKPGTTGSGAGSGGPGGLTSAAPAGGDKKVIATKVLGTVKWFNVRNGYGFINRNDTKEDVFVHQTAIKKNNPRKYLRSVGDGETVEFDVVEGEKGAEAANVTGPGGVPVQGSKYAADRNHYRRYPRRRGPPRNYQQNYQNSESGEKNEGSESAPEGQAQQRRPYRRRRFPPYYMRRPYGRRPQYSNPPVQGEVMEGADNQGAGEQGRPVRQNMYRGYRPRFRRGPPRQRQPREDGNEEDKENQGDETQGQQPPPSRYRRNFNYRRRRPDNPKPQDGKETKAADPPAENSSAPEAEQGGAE

What was measured:
[1] = target: CSD, the cold-shock domain of YB-1 (UniProt Q28618); assay: atomic force microscopy; protein multimerization in the absence of RNA, imaged by AFM (Figure S4B); both purified
[2] = target: CSD, the cold-shock domain of YB-1 (UniProt Q28618); assay: cross-linking; protein alone, in the absence of RNA; 5 μg in 10 μl of 20 mM Hepes-NaOH pH 7.6, 50 mM NaCl, 0.5 mM PMSF, 0.1% glutaraldehyde, 10 min at room temperature; 12% SDS-PAGE, Coomassie (Figure S4A); both purified
YB-1, full length [3] = target: YB-1, full length (UniProt Q28618); assay: cross-linking; YB-1 cross-linked in the presence of mRNA, which serves as a scaffold (Figure S2B); both purified
YB-1, full length [4] = target: YB-1, full length (UniProt Q28618); assay: cross-linking; YB-1 cross-linked on supercoiled DNA; multimers resistant to DNAse once formed (Figure S2B); both purified
YB-1, full length [5] = target: YB-1, full length (UniProt Q28618); assay: atomic force microscopy; YB-1 constructs (100-500 nM) with supercoiled pBR322 DNA (2 nM) on mica; 20 mM Hepes pH 7.6, 50 mM KCl, 4 mM MgCl2; multimers seen on the DNA, at DNA crosses; both purified
[6] = target: YB-1-tr, a truncated form comprising the first 219 amino acid residues (UniProt Q28618); assay: as above

- binding [1]: binds
- binding [2]: binds
Substance: CSD, the cold-shock domain of YB-1 (from UniProt Q28618 58-128) (domain or fragment)

- binding (YB-1, full length [3]): binds
- binding (YB-1, full length [4]): binds
- binding (YB-1, full length [5]): binds
Substance: YB-1, full length (from UniProt Q28618 1-324)

- binding [6]: binds
Substance: YB-1-tr, a truncated form comprising the first 219 amino acid residues (from UniProt Q28618 1-219) (domain or fragment)
